Patent US8216786B2, “Genetic polymorphisms associated with cardiovascular diseases, methods of detection and uses thereof” (Celera Corporation, priority 2008, dated 2012)
This continues a long series; more values of the same kind are listed elsewhere.

System: individuals who have previously had an MI
Experiment: CARE trial: effect of pravastatin vs placebo on coronary events (endpt1, rmi) by SNP genotype subgroup
Type: in vivo, human
Details: endpt1
Protocol: In Tables 21-22, the column labeled “Endpoint” indicates whether the endpoint that was analyzed was the primary endpoint of the CARE study (a composite endpoint of fatal coronary event or nonfatal MI, and identified as “endpt1”) or a composite endpoint of confirmed fatal or nonfatal MI (identified as “rmi”). […] As used herein, the term “benefit” (with respect to a preventive or therapeutic drug treatment) is defined as achieving a reduced risk for a disease that the drug is intended to treat or prevent (e.g., CVD such as CHD, particularly MI, or hypertension) by administering the drug treatment, compared with the risk for the disease in the absence of receiving the drug treatment (or receiving a placebo in lieu of the drug treatment) for the same genotype. […] J. […] (1996) New England Journal of Medicine 335: 1001-1009. […] A well-documented MI was one of the enrollment criteria for entry into the CARE study. Patients were enrolled in the CARE trial from 80 participating study centers. […] For the study of CARE described in this Example and shown in Tables 21-22, two endpoints were investigated: the primary endpoint of CARE (a composite endpoint of fatal coronary event or nonfatal MI, and identified as “endpt1” in the Endpoint column of Tables 21-22) and a composite endpoint of confirmed fatal or nonfatal MI (identified as “rmi” in the Endpoint column of Tables 21-22). […] HR stands for Hazard Ratio, which is a concept similar to Odds Ratio (OR). The HR in event-free survival analysis is the effect of an explanatory variable on the hazard or risk of an event. […] In Table 21, p-interaction values were calculated. An interaction (or effect modification) is formed when a third variable modifies the relation between an exposure and outcome. […] Genotype and drug interaction is present when the effect of statins (incidence rate of disease in statin-treated group, as compared to placebo) differs in patients with different genotypes.

[1] = hCV25605897 rs11568563 SLCO1A2, Strata GT + GG
[2] = hCV25605897 rs11568563 SLCO1A2, Strata TT
[3] = hCV25607193 FLNB, Strata CT + CC
[4] = hCV25608818 SLC10A2, Strata AG + AA
[5] = hCV25610470 rs34075341 C9orf47, Strata AG + AA
[6] = hCV25610470 rs34075341 C9orf47, Strata GG
[7] = hCV25610774 rs8176748, Strata TC + CC
[8] = hCV25610774 rs8176748, Strata TT
[9] = hCV25610819 rs8176740, Strata TA + AA
[10] = hCV25610819 rs8176740, Strata TT
[11] = hCV25614016 rs7607759 CAPN10, Strata AA
[12] = hCV25614016 rs7607759 CAPN10, Strata GA + GG
[13] = hCV25617571 rs2232580 LBP, Strata CC
[14] = hCV25617571 rs2232580 LBP, Strata TC + TT
[15] = hCV25623265 rs3746638 SIGLEC1, Strata GA + AA
[16] = hCV25623265 rs3746638 SIGLEC1, Strata GG
[17] = hCV25629396 rs3729823 MYH7, Strata CG + CC
[18] = hCV25629396 rs3729823 MYH7, Strata GG
[19] = hCV25629476 rs2427284 LAMA5, Strata AG + AA
[20] = hCV25629476 rs2427284 LAMA5, Strata GG
[21] = hCV25629492 rs944895 LAMA5, Strata AA
[22] = hCV25629492 rs944895 LAMA5, Strata GA + GG
[23] = hCV25629888 rs11539441 TIMP2, Strata GC + CC
[24] = hCV25629888 rs11539441 TIMP2, Strata GG
[25] = hCV25652744 rs1127525 USP21, Strata AA
[26] = hCV25652744 rs1127525 USP21, Strata AC
[27] = hCV25652744 rs1127525 USP21, Strata CC
[28] = hCV28974083 rs8032553 C15orf42, strata GA + AA
[29] = hCV28974083 rs8032553 C15orf42, strata GG
[30] = hCV29011391 rs7557067, strata AG + AA
[31] = hCV29011391 rs7557067, strata GG
[32] = hCV29135108 rs6743779 KLF7, strata AA
[33] = hCV29135108 rs6743779 KLF7, strata CA + CC
[34] = hCV30264691 rs10508518 CUBN, strata GG
[35] = hCV30264691 rs10508518 CUBN, strata TG + TT
[36] = hCV30606396 rs10438978, strata CC
[37] = hCV30606396 rs10438978, strata TC + TT
[38] = hCV31145250 rs10889353 DOCK7, strata AA
[39] = hCV31145250 rs10889353 DOCK7, strata AC + CC
[40] = hCV31237961 rs11950562 SLC22A4, strata AC + AA
[41] = hCV31237961 rs11950562 SLC22A4, strata CC
[42] = hCV31528409 rs7635061, strata AA
[43] = hCV31528409 rs7635061, strata AG + GG
[44] = hCV31954792 rs6477693 C9orf4, strata CA + AA
[45] = hCV31954792 rs6477693 C9orf4, strata CC
[46] = hDV70797856 rs17006217, strata CC
[47] = hDV70797856 rs17006217, strata CT
[48] = hDV70797856 rs17006217, strata TT
[49] = hDV76976592 rs4149274 ABCA1, strata GA + AA
[50] = hDV76976592 rs4149274 ABCA1, strata GG

CC[C@H](C)C(=O)O[C@H]1C[C@H](O)C=C2C=C[C@H](C)[C@H](CC[C@@H](O)C[C@@H](O)CC(=O)O)[C@H]21 [pravastatin]
EVENTS (Pravastatin arm) [1]: 7
NONEVENT (Pravastatin arm) [1]: 150
EVENTS (Pravastatin arm) [2]: 126
NONEVENT (Pravastatin arm) [2]: 1140
EVENTS (Pravastatin arm) [3]: 6
NONEVENT (Pravastatin arm) [3]: 33
EVENTS (Pravastatin arm) (hCV25607193 FLNB, Strata TT): 127
NONEVENT (Pravastatin arm) (hCV25607193 FLNB, Strata TT): 1258
EVENTS (Pravastatin arm) [4]: 7
NONEVENT (Pravastatin arm) [4]: 32
EVENTS (Pravastatin arm) (hCV25608818 SLC10A2, Strata GG): 126
NONEVENT (Pravastatin arm) (hCV25608818 SLC10A2, Strata GG): 1258
EVENTS (Pravastatin arm) [5]: 4
NONEVENT (Pravastatin arm) [5]: 103
EVENTS (Pravastatin arm) [6]: 128
NONEVENT (Pravastatin arm) [6]: 1182
EVENTS (Pravastatin arm) [7]: 127
NONEVENT (Pravastatin arm) [7]: 1231
EVENTS (Pravastatin arm) [8]: 5
NONEVENT (Pravastatin arm) [8]: 57
EVENTS (Pravastatin arm) [9]: 128
NONEVENT (Pravastatin arm) [9]: 1225
EVENTS (Pravastatin arm) [10]: 5
NONEVENT (Pravastatin arm) [10]: 58
EVENTS (Pravastatin arm) [11]: 87
NONEVENT (Pravastatin arm) [11]: 915
EVENTS (Pravastatin arm) [12]: 46
NONEVENT (Pravastatin arm) [12]: 374
EVENTS (Pravastatin arm) [13]: 117
NONEVENT (Pravastatin arm) [13]: 1090
EVENTS (Pravastatin arm) [14]: 16
NONEVENT (Pravastatin arm) [14]: 200
EVENTS (Pravastatin arm) [15]: 118
NONEVENT (Pravastatin arm) [15]: 1000
EVENTS (Pravastatin arm) [16]: 14
NONEVENT (Pravastatin arm) [16]: 288
EVENTS (Pravastatin arm) [17]: 7
NONEVENT (Pravastatin arm) [17]: 26
EVENTS (Pravastatin arm) [18]: 125
NONEVENT (Pravastatin arm) [18]: 1260
EVENTS (Pravastatin arm) [19]: 22
NONEVENT (Pravastatin arm) [19]: 131
EVENTS (Pravastatin arm) [20]: 111
NONEVENT (Pravastatin arm) [20]: 1158
EVENTS (Pravastatin arm) [21]: 66
NONEVENT (Pravastatin arm) [21]: 511
EVENTS (Pravastatin arm) [22]: 64
NONEVENT (Pravastatin arm) [22]: 773
EVENTS (Pravastatin arm) [23]: 125
NONEVENT (Pravastatin arm) [23]: 1261
EVENTS (Pravastatin arm) [24]: 7
NONEVENT (Pravastatin arm) [24]: 30
EVENTS (Pravastatin arm) [25]: 1
NONEVENT (Pravastatin arm) [25]: 0
EVENTS (Pravastatin arm) [26]: 5
NONEVENT (Pravastatin arm) [26]: 113
EVENTS (Pravastatin arm) [27]: 127
NONEVENT (Pravastatin arm) [27]: 1153
EVENTS (Pravastatin arm) [28]: 105
NONEVENT (Pravastatin arm) [28]: 902
EVENTS (Pravastatin arm) [29]: 31
NONEVENT (Pravastatin arm) [29]: 360
EVENTS (Pravastatin arm) [30]: 126
NONEVENT (Pravastatin arm) [30]: 1191
EVENTS (Pravastatin arm) [31]: 9
NONEVENT (Pravastatin arm) [31]: 69
EVENTS (Pravastatin arm) [32]: 74
NONEVENT (Pravastatin arm) [32]: 601
EVENTS (Pravastatin arm) [33]: 61
NONEVENT (Pravastatin arm) [33]: 661
EVENTS (Pravastatin arm) [34]: 15
NONEVENT (Pravastatin arm) [34]: 111
EVENTS (Pravastatin arm) [35]: 121
NONEVENT (Pravastatin arm) [35]: 1148
EVENTS (Pravastatin arm) [36]: 96
NONEVENT (Pravastatin arm) [36]: 834
EVENTS (Pravastatin arm) [37]: 40
NONEVENT (Pravastatin arm) [37]: 428
EVENTS (Pravastatin arm) [38]: 52
NONEVENT (Pravastatin arm) [38]: 575
EVENTS (Pravastatin arm) [39]: 84
NONEVENT (Pravastatin arm) [39]: 685
EVENTS (Pravastatin arm) [40]: 101
NONEVENT (Pravastatin arm) [40]: 986
EVENTS (Pravastatin arm) [41]: 35
NONEVENT (Pravastatin arm) [41]: 279
EVENTS (Pravastatin arm) [42]: 62
NONEVENT (Pravastatin arm) [42]: 659
EVENTS (Pravastatin arm) [43]: 74
NONEVENT (Pravastatin arm) [43]: 606
EVENTS (Pravastatin arm) [44]: 129
NONEVENT (Pravastatin arm) [44]: 1163
EVENTS (Pravastatin arm) [45]: 7
NONEVENT (Pravastatin arm) [45]: 103
EVENTS (Pravastatin arm) [46]: 2
NONEVENT (Pravastatin arm) [46]: 14
EVENTS (Pravastatin arm) [47]: 25
NONEVENT (Pravastatin arm) [47]: 255
EVENTS (Pravastatin arm) [48]: 109
NONEVENT (Pravastatin arm) [48]: 997
EVENTS (Pravastatin arm) [49]: 84
NONEVENT (Pravastatin arm) [49]: 705
EVENTS (Pravastatin arm) [50]: 52
NONEVENT (Pravastatin arm) [50]: 557
EVENTS (Pravastatin arm) (hcV15870728 rs2943245 C10orf64, strata CT + TT): 106
